PubChem BioAssay AID1508597 – Cure First – 2020
Aim: 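Knock-downs altering ovarian cancer cell survival with or without PARP inhibitor rucaparib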 (primary screen). Cells: human ovarian carcinoma lines grown from tumours: OCI-P5x (papillary serous) and OCI-C5x (clear cell). Reagents: siRNA pool against human genes, 1.25 pmol siRNA per well. Timing: 72 h or 96 h, depending on the cell culture. Treatment: rucaparib 20 µM (about IC30) or vehicle, present until read-out. Rucaparib or vehicle: Rucaparib. Cell line: OCI-P5x (serous). Measurement: 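ATP luminescence measured at 72 or 96 h according to the culture, then normalised and expressed as percent viability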. Direction: viability, normalised: higher = more viable cells remaining. Rule for the call: 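a well counts as a hit if its normalised viability is under 80 percent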. Calls: active = viability under 80%; inactive = viability 80% or more.
Shown is a random part of the about 2,100 reagents, in one setting of the screen. 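Calls flag viability under 80% in either arm, not effects specific to rucaparib; the reference for percent is not stated.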 Not given: the 100% reference.

ENPP5 [SID405526670], technical replicate 1
- viability, normalised (%): 72
- Call: active

ENPP5 [SID405526670], technical replicate 2
- viability, normalised (%): 66.1
- Call: active

ENPP5 [SID405526670], technical replicate 3
- viability, normalised (%): 72.6
- Call: active

NRCAM (neuronal cell adhesion molecule) [SID405527090], technical replicate 1
- viability, normalised (%): 33.6
- Call: active

NRCAM (neuronal cell adhesion molecule) [SID405527090], technical replicate 2
- viability, normalised (%): 52.3
- Call: active

NRCAM (neuronal cell adhesion molecule) [SID405527090], technical replicate 3
- viability, normalised (%): 41.7
- Call: active

CDC42BPG (CDC42 binding protein kinase gamma) [SID405527818], technical replicate 1
- viability, normalised (%): 96.9
- Call: inactive

CDC42BPG (CDC42 binding protein kinase gamma) [SID405527818], technical replicate 2
- viability, normalised (%): 91.9
- Call: inactive

CDC42BPG (CDC42 binding protein kinase gamma) [SID405527818], technical replicate 3
- viability, normalised (%): 92
- Call: inactive

DPF2 (double PHD fingers 2) [SID405528240], technical replicate 1
- viability, normalised (%): 64
- Call: active

DPF2 (double PHD fingers 2) [SID405528240], technical replicate 2
- viability, normalised (%): 51.9
- Call: active

DPF2 (double PHD fingers 2) [SID405528240], technical replicate 3
- viability, normalised (%): 49.4
- Call: active

KIF11 (kinesin family member 11) [SID405526944], technical replicate 1
- viability, normalised (%): 34.4
- Call: active

KIF11 (kinesin family member 11) [SID405526944], technical replicate 2
- viability, normalised (%): 31.2
- Call: active

KIF11 (kinesin family member 11) [SID405526944], technical replicate 3
- viability, normalised (%): 42.4
- Call: active

ESPL1 (extra spindle pole bodies like 1, separase) [SID405528259], technical replicate 1
- viability, normalised (%): 82.4
- Call: inactive

ESPL1 (extra spindle pole bodies like 1, separase) [SID405528259], technical replicate 2
- viability, normalised (%): 89.8
- Call: inactive

ESPL1 (extra spindle pole bodies like 1, separase) [SID405528259], technical replicate 3
- viability, normalised (%): 74.3
- Call: active

DYRK1A [SID405527866], technical replicate 1
- viability, normalised (%): 92.7
- Call: inactive

DYRK1A [SID405527866], technical replicate 2
- viability, normalised (%): 91.7
- Call: inactive

DYRK1A [SID405527866], technical replicate 3
- viability, normalised (%): 101
- Call: inactive

DDX19A (DEAD-box helicase 19A) [SID405528174], technical replicate 1
- viability, normalised (%): 89.8
- Call: inactive

DDX19A (DEAD-box helicase 19A) [SID405528174], technical replicate 2
- viability, normalised (%): 96.5
- Call: inactive

DDX19A (DEAD-box helicase 19A) [SID405528174], technical replicate 3
- viability, normalised (%): 87.7
- Call: inactive

EPHA6 (EPH receptor A6) [SID405527837], technical replicate 1
- viability, normalised (%): 86.9
- Call: inactive

EPHA6 (EPH receptor A6) [SID405527837], technical replicate 2
- viability, normalised (%): 92.6
- Call: inactive

EPHA6 (EPH receptor A6) [SID405527837], technical replicate 3
- viability, normalised (%): 78.5
- Call: active

CLP1 (cleavage factor polyribonucleotide kinase subunit 1) [SID405528144], technical replicate 1
- viability, normalised (%): 80.1
- Call: inactive

CLP1 (cleavage factor polyribonucleotide kinase subunit 1) [SID405528144], technical replicate 2
- viability, normalised (%): 94.4
- Call: inactive

CLP1 (cleavage factor polyribonucleotide kinase subunit 1) [SID405528144], technical replicate 3
- viability, normalised (%): 74.4
- Call: active

MAPKAPK5 (MAPK activated protein kinase 5) [SID405527628], technical replicate 1
- viability, normalised (%): 102
- Call: inactive

MAPKAPK5 (MAPK activated protein kinase 5) [SID405527628], technical replicate 2
- viability, normalised (%): 110
- Call: inactive

MAPKAPK5 (MAPK activated protein kinase 5) [SID405527628], technical replicate 3
- viability, normalised (%): 89.4
- Call: inactive

Looked up above:
DPF2 (double PHD fingers 2) [SID405528240], technical replicate 3, viability, normalised (%): 49.4
Under “viability, normalised (%)”, ENPP5 [SID405526670], technical replicate 2 reads 66.1
For “Call”, CDC42BPG (CDC42 binding protein kinase gamma) [SID405527818], technical replicate 3 shows inactive
